No constants are given. Whether binding was seen depends on the method and setting. Binding seen in cells or lysates may run through a third protein. Here binding means that the protein was enriched with, or labelled near, the bait; the list need not be complete. For some assays here: Sequences can lack the tags named with a protein.

Test [1] addresses SARS-CoV-2 ORF3a, SFB- or BioID2-tagged (SARS-CoV-2), P0DTC3. The experiment in a line: affinity purification with mass spectrometry + proximity labelling. Conditions: remark: other sources report otherwise.
Test [2] addresses SARS-CoV-2 NSP7, SFB- or BioID2-tagged (SARS-CoV-2) (UniProt P0DTD1). The description is as above.
Test [3] concerns the target SARS-CoV-1 NSP1, SFB- or BioID2-tagged (SARS-CoV-1) (UniProt P0C6X7). The test is described as above.
In test [4] the target is SARS-CoV-2 NSP1, SFB- or BioID2-tagged (SARS-CoV-2) (UniProt P0DTD1). The test is described as above.
In test [5] the target is T1, HCoV-229E NSP1, SFB-tagged (HCoV-229E) (UniProt P0C6X1).
T1 sequence: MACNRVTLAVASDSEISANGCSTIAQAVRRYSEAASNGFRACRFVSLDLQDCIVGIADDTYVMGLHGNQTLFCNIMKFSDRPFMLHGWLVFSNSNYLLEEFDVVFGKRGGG
The experiment in a line: affinity purification with mass spectrometry.

B1: VPS41, P49754 1-854 (protein)
chain: MAEAEEQETGSLEESTDESEEEESEEEPKLKYERLSNGVTEILQKDAASCMTVHDKFLALGTHYGKVYLLDVQGNITQKFDVSPVKINQISLDESGEHMGVCSEDGKVQVFGLYSGEEFHETFDCPIKIIAVHPHFVRSSCKQFVTGGKKLLLFERSWMNRWKSAVLHEGEGNIRSVKWRGHLIAWANNMGVKIFDIISKQRITNVPRDDISLRPDMYPCSLCWKDNVTLIIGWGTSVKVCSVKERHASEMRDLPSRYVEIVSQFETEFYISGLAPLCDQLVVLSYVKEISEKTEREYCARPRLDIIQPLSETCEEISSDALTVRGFQENECRDYHLEYSEGESLFYIVSPRDVVVAKERDQDDHIDWLLEKKKYEEALMAAEISQKNIKRHKILDIGLAYINHLVERGDYDIAARKCQKILGKNAALWEYEVYKFKEIGQLKAISPYLPRGDPVLKPLIYEMILHEFLESDYEGFATLIREWPGDLYNNSVIVQAVRDHLKKDSQNKTLLKTLAELYTYDKNYGNALEIYLTLRHKDVFQLIHKHNLFSSIKDKIVLLMDFDSEKAVDMLLDNEDKISIKKVVEELEDRPELQHVYLHKLFKRDHHKGQRYHEKQISLYAEYDRPNLLPFLRDSTHCPLEKALEICQQRNFVEETVYLLSRMGNSRSALKMIMEELHDVDKAIEFAKEQDDGELWEDLILYSIDKPPFITGLLNNIGTHVDPILLIHRIKEGMEIPNLRDSLVKILQDYNLQILLREGCKKILVADSLSLLKKMHRTQMKGVLVDEENICESCLSPILPSDAAKPFSVVVFHCRHMFHKECLPMPSMNSAAQFCNICSAKNRGPGSAILEMKK
As to B1, the binding result in test [1] was “binds”.

B2: THOC1 (protein, UniProt Q96FV9 1-657)
chain: MSPTPPLFSLPEARTRFTKSTREALNNKNIKPLLSTFSQVPGSENEKKCTLDQAFRGILEEEIINHSSCENVLAIISLAIGGVTEGICTASTPFVLLGDVLDCLPLDQCDTIFTFVEKNVATWKSNTFYSAGKNYLLRMCNDLLRRLSKSQNTVFCGRIQLFLARLFPLSEKSGLNLQSQFNLENVTVFNTNEQESTLGQKHTEDREEGMDVEEGEMGDEEAPTTCSIPIDYNLYRKFWSLQDYFRNPVQCYEKISWKTFLKYSEEVLAVFKSYKLDDTQASRKKMEELKTGGEHVYFAKFLTSEKLMDLQLSDSNFRRHILLQYLILFQYLKGQVKFKSSNYVLTDEQSLWIEDTTKSVYQLLSENPPDGERFSKMVEHILNTEENWNSWKNEGCPSFVKERTSDTKPTRIIRKRTAPEDFLGKGPTKKILMGNEELTRLWNLCPDNMEACKSETREHMPTLEEFFEEAIEQADPENMVENEYKAVNNSNYGWRALRLLARRSPHFFQPTNQQFKSLPEYLENMVIKLAKELPPPSEEIKTGEDEDEEDNDALLKENESPDVRRDKPVTGEQIEVFANKLGEQWKILAPYLEMKDSEIRQIECDSEDMKMRAKQLLVAWQDQEGVHATPENLINALNKSGLSDLAESLTNDNETNS
Consider B2, for which, in test [2], the binding result is “binds”.

B3: DVL1 (protein, UniProt O14640 1-695)
chain: MAETKIIYHMDEEETPYLVKLPVAPERVTLADFKNVLSNRPVHAYKFFFKSMDQDFGVVKEEIFDDNAKLPCFNGRVVSWLVLAEGAHSDAGSQGTDSHTDLPPPLERTGGIGDSRPPSFHPNVASSRDGMDNETGTESMVSHRRERARRRNREEAARTNGHPRGDRRRDVGLPPDSASTALSSELESSSFVDSDEDGSTSRLSSSTEQSTSSRLIRKHKRRRRKQRLRQADRASSFSSITDSTMSLNIVTVTLNMERHHFLGISIVGQSNDRGDGGIYIGSIMKGGAVAADGRIEPGDMLLQVNDVNFENMSNDDAVRVLREIVSQTGPISLTVAKCWDPTPRSYFTVPRADPVRPIDPAAWLSHTAALTGALPRYGTSPCSSAVTRTSSSSLTSSVPGAPQLEEAPLTVKSDMSAVVRVMQLPDSGLEIRDRMWLKITIANAVIGADVVDWLYTHVEGFKERREARKYASSLLKHGFLRHTVNKITFSEQCYYVFGDLCSNLATLNLNSGSSGTSDQDTLAPLPHPAAPWPLGQGYPYQYPGPPPCFPPAYQDPGFSYGSGSTGSQQSEGSKSSGSTRSSRRAPGREKERRAAGAGGSGSESDHTAPSGVGSSWRERPAGQLSRGSSPRSQASATAPGLPPPHPTTKAYTVVGGPPGGPPVRELAAVPPELTGSRQSFQKAMGNPCEFFVDIM
B3: in test [2], the binding entry is reported as “binds”.

B4: PRIM1 (protein, UniProt P49642 1-420)
chain: METFDPTELPELLKLYYRRLFPYSQYYRWLNYGGVIKNYFQHREFSFTLKDDIYIRYQSFNNQSDLEKEMQKMNPYKIDIGAVYSHRPNQHNTVKLGAFQAQEKELVFDIDMTDYDDVRRCCSSADICPKCWTLMTMAIRIIDRALKEDFGFKHRLWVYSGRRGVHCWVCDESVRKLSSAVRSGIVEYLSLVKGGQDVKKKVHLSEKIHPFIRKSINIIKKYFEEYALVNQDILENKESWDKILALVPETIHDELQQSFQKSHNSLQRWEHLKKVASRYQNNIKNDKYGPWLEWEIMLQYCFPRLDINVSKGINHLLKSPFSVHPKTGRISVPIDLQKVDQFDPFTVPTISFICRELDAISTNEEEKEENEAESDVKHRTRDYKKTSLAPYVKVFEHFLENLDKSRKGELLKKSDLQKDF
As for B4, the binding entry in test [3] and in test [4] was “binds” each time.

B5: THOC6 (protein, UniProt Q86W42 1-341)
chain: MERAVPLAVPLGQTEVFQALQRLHMTIFSQSVSPCGKFLAAGNNYGQIAIFSLSSALSSEAKEESKKPVVTFQAHDGPVYSMVSTDRHLLSAGDGEVKAWLWAEMLKKGCKELWRRQPPYRTSLEVPEINALLLVPKENSLILAGGDCQLHTMDLETGTFTRVLRGHTDYIHCLALRERSPEVLSGGEDGAVRLWDLRTAKEVQTIEVYKHEECSRPHNGRWIGCLATDSDWMVCGGGPALTLWHLRSSTPTTIFPIRAPQKHVTFYQDLILSAGQGRCVNQWQLSGELKAQVPGSSPGLLSLSLNQQPAAPECKVLTAAGNSCRVDVFTNLGYRAFSLSF
Take B5: the binding entry in test [2] was “binds”.

B6: POLA2 (protein, UniProt Q14181 1-598)
chain: MSASAQQLAEELQIFGLDCEEALIEKLVELCVQYGQNEEGMVGELIAFCTSTHKVGLTSEILNSFEHEFLSKRLSKARHSTCKDSGHAGARDIVSIQELIEVEEEEEILLNSYTTPSKGSQKRAISTPETPLTKRSVSTRSPHQLLSPSSFSPSATPSQKYNSRSNRGEVVTSFGLAQGVSWSGRGGAGNISLKVLGCPEALTGSYKSMFQKLPDIREVLTCKIEELGSELKEHYKIEAFTPLLAPAQEPVTLLGQIGCDSNGKLNNKSVILEGDREHSSGAQIPVDLSELKEYSLFPGQVVIMEGINTTGRKLVATKLYEGVPLPFYQPTEEDADFEQSMVLVACGPYTTSDSITYDPLLDLIAVINHDRPDVCILFGPFLDAKHEQVENCLLTSPFEDIFKQCLRTIIEGTRSSGSHLVFVPSLRDVHHEPVYPQPPFSYSDLSREDKKQVQFVSEPCSLSINGVIFGLTSTDLLFHLGAEEISSSSGTSDRFSRILKHILTQRSYYPLYPPQEDMAIDYESFYVYAQLPVTPDVLIIPSELRYFVKDVLGCVCVNPGRLTKGQVGGTFARLYLRRPAADGAERQSPCIAVQVVRI
Consider B6, for which the binding result in test [3] and in test [4] was “binds” in each case.

B7: ERCC5 (protein, UniProt P28715 1-1186)
chain: MGVQGLWKLLECSGRQVSPEALEGKILAVDISIWLNQALKGVRDRHGNSIENPHLLTLFHRLCKLLFFRIRPIFVFDGDAPLLKKQTLVKRRQRKDLASSDSRKTTEKLLKTFLKRQAIKTAFRSKRDEALPSLTQVRRENDLYVLPPLQEEEKHSSEEEDEKEWQERMNQKQALQEEFFHNPQAIDIESEDFSSLPPEVKHEILTDMKEFTKRRRTLFEAMPEESDDFSQYQLKGLLKKNYLNQHIEHVQKEMNQQHSGHIRRQYEDEGGFLKEVESRRVVSEDTSHYILIKGIQAKTVAEVDSESLPSSSKMHGMSFDVKSSPCEKLKTEKEPDATPPSPRTLLAMQAALLGSSSEEELESENRRQARGRNAPAAVDEGSISPRTLSAIKRALDDDEDVKVCAGDDVQTGGPGAEEMRINSSTENSDEGLKVRDGKGIPFTATLASSSVNSAEEHVASTNEGREPTDSVPKEQMSLVHVGTEAFPISDESMIKDRKDRLPLESAVVRHSDAPGLPNGRELTPASPTCTNSVSKNETHAEVLEQQNELCPYESKFDSSLLSSDDETKCKPNSASEVIGPVSLQETSSIVSVPSEAVDNVENVVSFNAKEHENFLETIQEQQTTESAGQDLISIPKAVEPMEIDSEESESDGSFIEVQSVISDEELQAEFPETSKPPSEQGEEELVGTREGEAPAESESLLRDNSERDDVDGEPQEAEKDAEDSLHEWQDINLEELETLESNLLAQQNSLKAQKQQQERIAATVTGQMFLESQELLRLFGIPYIQAPMEAEAQCAILDLTDQTSGTITDDSDIWLFGARHVYRNFFNKNKFVEYYQYVDFHNQLGLDRNKLINLAYLLGSDYTEGIPTVGCVTAMEILNEFPGHGLEPLLKFSEWWHEAQKNPKIRPNPHDTKVKKKLRTLQLTPGFPNPAVAEAYLKPVVDDSKGSFLWGKPDLDKIREFCQRYFGWNRTKTDESLFPVLKQLDAQQTQLRIDSFFRLAQQEKEDAKRIKSQRLNRAVTCMLRKEKEAAASEIEAVSVAMEKEFELLDKAKGKTQKRGITNTLEESSSLKRKRLSDSKGKNTCGGFLGETCLSESSDGSSSEDAESSSLMNVQRRTAAKEPKTSASDSQNSVKEAPVKNGGATTSSSSDSDDDGGKEKMVLVTARSVFGKKRRKLRRARGRKRKT
Take B7: the binding result in test [5] is reported as “binds”.

B8: PRIM2 (protein, UniProt P49643 1-509)
chain: MEFSGRKWRKLRLAGDQRNASYPHCLQFYLQPPSENISLIEFENLAIDRVKLLKSVENLGVSYVKGTEQYQSKLESELRKLKFSYRENLEDEYEPRRRDHISHFILRLAYCQSEELRRWFIQQEMDLLRFRFSILPKDKIQDFLKDSQLQFEAISDEEKTLREQEIVASSPSLSGLKLGFESIYKIPFADALDLFRGRKVYLEDGFAYVPLKDIVAIILNEFRAKLSKALALTARSLPAVQSDERLQPLLNHLSHSYTGQDYSTQGNVGKISLDQIDLLSTKSFPPCMRQLHKALRENHHLRHGGRMQYGLFLKGIGLTLEQALQFWKQEFIKGKMDPDKFDKGYSYNIRHSFGKEGKRTDYTPFSCLKIILSNPPSQGDYHGCPFRHSDPELLKQKLQSYKISPGGISQILDLVKGTHYQVACQKYFEMIHNVDDCGFSLNHPNQFFCESQRILNGGKDIKKEPIQPETPQPKPSVQKTKDASSALASLNSSLEMDMEGLEDYFSEDS
As for B8, the binding entry in test [3] and in test [4] was “binds” each time.

(Values after publication doi:10.1101/2020.12.31.424961.)
